The other results are listed elsewhere or left out. Further columns of the screen follow, without active or inactive calls. Compounds called inactive in the main read-out are mostly missing here. Potencies come from curve fits of mixed quality, noted in brackets.
Experiment: qHTS Assay to Find Inhibitors of Chronic Active B-Cell Receptor Signaling
Conditions: ABC-DLBCL IkBa-CBG/CBR reporter, luminescence ratio (green luciferase fused to IkBa over red control in TMD8 lymphoma cells), 4 h
Source text: NIH Molecular Libraries Probe Production Network [MLPCN] NIH Chemical Genomics Center [NCGC] MLPCN Grant: 1 R03 DA031086-01A1 PI Name: Dr. R. Eric Davis NCGC Assay Overview: Diffuse large B-cell lymphoma (DLBCL) is the most common category of non-Hodgkin lymphoma, with ~20,000 new cases per year in the United States. DLBCL should be regarded as a collection of different neoplasms. Microarray gene expression analysis has defined two principal types of DLBCL, named for their similarity to normal B cell stages or activation states: a germinal center B-cell (GCB) type, and an activated B-cell (ABC) type. In ABC-DLBCL, a constitutive high-level activity of the NF-kappaB family of transcription factors has been observed (1) and NF-kappaB target genes are more highly expressed in ABC primary tumors than in GCB tumors. Functional studies have shown a constitutive high-level activity of the IkappaB (inhibitor of kappa-B) kinase (IKK) complex. […] Further analysis of DLBCL primary tumors for NF-kappaB target gene expression imply that although CARD11 is required for constitutive IKK activity in all ABC-DLBCL lines, mutations in CARD11 may be the root cause of IKK activation only in lines or tumors with such mutations. In other words, CARD11 mutations may explain NF-kappaB activation in only 10% of ABC-DLBCL cases. […] This process has been termed 'chronic active BCR signaling' (CABS). The goal of this screen is to find small-molecule inhibitors of the CABS pathway found in ABC-DLBCL lines using a cell-based assay that measures IkappaBalpa stability, which has already been extensively validated in the OCI-Ly3 line (PubChem AID:445; REF: 4). […] The assay uses green (CBG68) and red (CBR) emitting beetle luciferases [Chroma-GloTM developed by Promega Corp.] where the green luciferase is fused to IkappaBalpha and the red luciferase is present in its native state. Both luciferase genes are stably present in the TMD8 human ABC DLBCL cell line, but their expression is under the control of tetracycline-inducible promoters. Following the addition of doxycycline to induce expression of the luciferases, the green luminescence in control cultures rises only slowly because the CBG fusion partner IkappaBalpha is targeted by IKK activity for rapid degradation. In contrast, green luminescence rises rapidly in the presence of proteasome inhibitors or IKK inhibitors. The rise in red luminescence of CBR is not affected by proteasome or IKK inhibitors, and serves as normalization for cell number and nonspecific effects. Compounds were screened as a concentration-titration series that ranged from 46 uM to 3 nM.
NCGC Assay Protocol Summary: Cells were seeded in 1536-well plates at 5000 cells/4uL in IMDM medium containing 0.5% FBS, w/o phenol red, 1% penicillin/streptomycin. Then, 23 nL of compounds or DMSO were delivered to each well using a pin tool. One uL 20ng/ml doxycycline was then dispensed into white solid 1536-well plates and the plates were incubated at 37C/5% C02 in a cell incubator for 4 hrs. Then 4 uL luminescent substrate mix (in-house prepared: 150 mM Tris-Cl, pH 7.6, 3 mM MgCl2, 1% Triton X-100, 5 mM DTT, 0.2 mM CoA, 0.15 mM ATP, 5 mM D-luciferin, final concentrations) was added to each well. The plate was incubated at r.t. for 10-15 min. The plates were measured on a ViewLux plate reader for green luminescence (540/20 nm filter) and red luminescence (618/8 nm filter). The green and red luminescent signals were corrected for red and green luminescence filter overlap using previously determined filter calibration constants (determined using the procedure outlined in the Promega Technical Manual; REF 4). The %Activity was determined from the ratio of corrected green/red luminescent values. MG132 were used as control. […] Red luminescent %Activity was normalized to the difference between red luminesence in basal cells (0%Activity) and zero luminescence (-100% Activity). […]

[1] = measured here: CBR red luminescence, cell number
[2] = measured here: IkBa-CBG green luminescence

Compound | AC50 [1] | AC50 [2]
COc1ccccc1CNC(=O)C(=O)NCC1OCCN1S(=O)(=O)c1cccs1 (configuration not stated) | 11.2 µM [falling, partial curve, poor fit] | 
CC1CC(C)CN(CCCNC(=O)c2cc3c(s2)-c2ccccc2OC3)C1 (configuration not stated) | 39.8 µM [falling, partial curve, poor fit] | 
Fc1ccc(NC(=S)NC23CN4CN(CN(C4)C2)C3)cc1 | 25.9 µM [rising, single point] | 
O=C(O)c1cccc(NC(=O)c2cccc(S(=O)(=O)N3CCc4ccccc43)c2)c1 | 14.1 µM [rising, partial curve, poor fit] | 
O=C(Nc1ccc(F)cc1)N1CCN(C/C=C/c2ccccc2)CC1 | 35.5 µM [rising, partial curve, poor fit] | 
COc1cc(C(=O)O/N=C(\N)c2ccccn2)cc(OC)c1OC | 20 µM [falling, single point] | 
CCOC(=O)c1cn2nc(Oc3cccc(F)c3)ccc2n1 | 28.2 µM [falling, single point] | 
CCOc1ccc(C2C=C(c3ccc(C)cc3)Nc3nnnn32)cc1 (configuration not stated) | 35.5 µM [falling, single point] | 
CCOc1ccccc1C(=O)N1c2ccccc2Sc2ccccc21 | 29.1 µM [falling, single point] | 
COc1ccc(O)c(C(=O)c2cnn(C(=O)c3cccc(S(=O)(=O)N4CCOCC4)c3)c2)c1 | 12.6 µM [falling, partial curve, poor fit] | 
COC(=O)COc1cccc(NC(=O)c2cc(OC)cc(OC)c2)c1 | 11.2 µM [falling, partial curve, poor fit] | 
CCc1c(C)nc(SCCOc2ccc(OC(C)C)cc2)[nH]c1=O | 16.4 µM [rising, partial curve, poor fit] | 
COc1ccc(-c2n[nH]c(C)c2-c2ccc(Cl)cc2)c(O)c1 | 0.631 µM [rising, full curve, poor fit] | 
O=C(O)CCc1ccc(S(=O)(=O)Nc2ccccc2C(=O)NCCc2ccccc2)cc1 | 1.41 µM [rising, full curve, poor fit] | 
O=C(Cn1cc2c(n1)CCCC2)NC1CCCCCC1 | 18.4 µM [rising, partial curve, poor fit] | 
C=CCSc1nnc(NC(=O)CSc2nnc(C)s2)s1 | 14.6 µM [falling, partial curve, poor fit] | 
COc1ccc(/C=C(/C(=O)N2CCCCC2C(=O)O)c2ccc(OC)c(OC)c2)cc1 (configuration not stated) | 25.9 µM [rising, single point] | 
COc1ccc(CCNC(=O)CNC(=O)Cn2cnc3sc(C)c(C)c3c2=O)cc1OC | 2.24 µM [rising, partial curve] | 
COC(=O)c1ccc(CSc2ccc3nnc(-c4ccccn4)n3n2)o1 | 18.4 µM [falling, partial curve, poor fit] | 
CCc1ccc(C(C)NC(=O)C2(C)CC2(Br)Br)cc1 (configuration not stated) | 0.164 µM [falling, full curve, poor fit] | 
C/C=C/c1ccc(O)c(OC)c1 | 29.1 µM [falling, single point] | 

Compound | AC50 [1] | AC50 [2]
COc1cc(OC)cc(C(=O)N2CCC(N3CCCCCC3)CC2)c1 | 11.6 µM [rising, partial curve, poor fit] | 
Cc1ccc(C(NC(=O)N2CCOCC2)C(Cl)Cl)cc1F (configuration not stated) | 3.66 µM [falling, partial curve, poor fit] | 
O=S(=O)(Nc1nc2ccccc2nc1N1CCN(c2ccccn2)CC1)c1ccc(Cl)cc1 | 29.1 µM [falling, single point] | 
CC(=O)c1ccc(OCCCC(=O)OCC(=O)Nc2c(C)nn(-c3ccccc3)c2C)cc1 | 0.731 µM [rising, full curve, poor fit] | 
Cc1cc(OC(=O)c2ccccc2Cl)cc(=O)n1C | 12.6 µM [falling, single point] | 
COC(=O)c1ccc(OCC2c3cc(OC)c(OC)cc3CCN2C(=O)c2ccco2)cc1 (configuration not stated) | 35.5 µM [falling, single point] | 
O=C(NCc1ccc(F)cc1)c1ccc(N2CCOCC2)c([N+](=O)[O-])c1 | 7.08 µM [rising, full curve, poor fit] | 
CCCc1nc2c(nnn2Cc2ccccc2Cl)c(=O)[nH]1 | 6.31 µM [falling, partial curve, poor fit] | 
Cc1ccc(CNC(=O)C2CCN(S(=O)(=O)c3c(C)noc3/C=C/c3ccco3)CC2)cc1 | 0.0092 µM [rising, full curve, poor fit] | 
Cc1cccc(C(=O)Nc2sc(-c3ccccc3)cc2C(=O)O)c1 | 7.94 µM [falling, partial curve, poor fit] | 
CCCOc1ccc(-c2c(C(=O)N/N=C/c3cccs3)nnn2-c2nonc2N)cc1 | 35.5 µM [falling, single point] | 
COC(=O)c1nnn(CC(=O)Nc2cccc(OC)c2)c1C(=O)OC | 9.2 µM [rising, partial curve, poor fit] | 
CC(=O)c1cccc(NC(=O)CC2CCCC2)c1 | 6.31 µM [rising, partial curve] | 
O=C(CSc1nc2ccccc2c(=O)n1CC1CCCO1)Nc1ccc(F)cc1 (configuration not stated) | 8.91 µM [falling, partial curve, poor fit] | 
Cc1ccc(/C=C(\NC(=O)c2ccccc2)C(=O)N2CCCCC2)cc1 | 35.5 µM [rising, single point] | 
O=C(O)c1ccc(NC(=O)c2cc3ccccc3o2)cc1 | 0.251 µM [falling, full curve] | 
Cc1cccc(NCCC#N)c1 | 23.1 µM [rising, partial curve, poor fit] | 
Cc1cccc(C)c1Nc1c(-c2ccc(N3CCOCC3)cc2)nc2cnccn12 | 25.1 µM [rising, single point] | 15.8 µM [falling, partial curve, poor fit]
COc1ccccc1N1CCN(C(=O)CSc2nnc(NC(=O)C3CC3)s2)CC1 | 28.2 µM [rising, single point] | 
Cc1ccc(-c2cc(C(F)F)nc(S(C)(=O)=O)n2)cc1 | 8.91 µM [falling, partial curve] | 12.6 µM [rising, partial curve, poor fit]
COc1ccc(/C=N/NC(=O)CNC(=O)c2cccs2)cc1 | 1.64 µM [falling, full curve, poor fit] | 

Compound | AC50 [1] | AC50 [2]
O=C1/C(=C/c2ccc(N3CCOCC3)o2)SC(=Nc2ccccc2)N1CCc1c[nH]c2ccccc12 | 35.5 µM [rising, single point] | 15.8 µM [falling, partial curve, poor fit]
COc1ccc(C2CC(=O)c3ccccc3O2)cc1 (configuration not stated) | 4.11 µM [rising, full curve] | 
Cc1ccsc1/C=N/Nc1ccc(Cl)nn1 | 0.447 µM [rising, full curve, poor fit] | 
O=C(c1cc([N+](=O)[O-])ccc1N1CCOCC1)N1CCN(c2ccccc2)CC1 | 2.82 µM [rising, full curve] | 2.51 µM [falling, full curve]
Cc1nc(SCC(=O)N(C)C2CCS(=O)(=O)C2)c2ccccc2n1 (configuration not stated) | 18.4 µM [falling, single point] | 
NC(=O)CC(NC(=S)NCc1ccccc1)C(=O)O (configuration not stated) | 18.4 µM [falling, partial curve, poor fit] | 
COc1ccc(C(=O)Nc2nnc(C(F)(F)F)s2)cc1 | 1.12 µM [falling, full curve] | 
O=C(Oc1c(-c2ccccc2)c(=O)n2c3c(cccc13)CC2)c1ccccc1 | 8.91 µM [falling, partial curve, poor fit] | 
CCCCn1c(-c2ccccc2)cnc1SCC(=O)NCCc1ccc(OC)c(OC)c1 | 2.91 µM [rising, single point] | 
O=[N+]([O-])c1ccc(N/N=C/c2cccc(O)c2O)cc1 | 17.8 µM [falling, single point] | 
Oc1ccc(/C=N/Nc2nc(-c3ccccc3F)nc3ccccc23)c(O)c1 | 5.01 µM [falling, partial curve] | 
Cc1c(O)ccc(C(=O)CN2CCN(Cc3ccccc3)CC2)c1O | 2.82 µM [falling, partial curve, poor fit] | 
COc1ccc(/C=C/C(=O)Nc2cccc(S(=O)(=O)NC3=NCCCCC3)c2)cc1OC | 29.1 µM [falling, single point] | 
Clc1ccc(Cc2nnc(-c3cccs3)o2)cc1 | 6.51 µM [rising, partial curve] | 
Brc1cc(Br)cc(CN2CCSCC2)c1 | 31.6 µM [falling, single point] | 
COc1ccc(C)c(-n2c(=O)n(Cc3ccccc3)c(=O)c3[nH]cnc32)c1 | 12.6 µM [rising, partial curve] | 
O=C(Nc1nncs1)c1cc2c(s1)CCC2 | 3.55 µM [rising, partial curve, poor fit] | 
COc1ccc(CNc2ncnc3c2cnn3-c2ccc(C)c(C)c2)cc1 | 14.1 µM [falling, partial curve, poor fit] | 
CCN(CC)C1CCN(C(=O)CCc2nnc(CCCCc3ccccc3)o2)C1 (configuration not stated) | 35.5 µM [rising, single point] | 
Cc1ccccc1C(=O)Nc1sc2c(c1C(=O)O)CCC2 | 3.55 µM [falling, partial curve, poor fit] | 
Nc1c(C(=O)c2ccccc2)sc2c1c(=O)[nH]c(=O)n2-c1ccccc1 | 18.4 µM [rising, single point] | 

Reformatted: three of the compounds above
Cc1ccc(-c2cc(C(F)F)nc(S(C)(=O)=O)n2)cc1
  AC50 [1]: 8.91 µM [falling, partial curve]; AC50 [2]: 12.6 µM [rising, partial curve, poor fit]
COc1ccc(/C=N/NC(=O)CNC(=O)c2cccs2)cc1
  AC50 [1]: 1.64 µM [falling, full curve, poor fit]
O=C1/C(=C/c2ccc(N3CCOCC3)o2)SC(=Nc2ccccc2)N1CCc1c[nH]c2ccccc12
  AC50 [1]: 35.5 µM [rising, single point]; AC50 [2]: 15.8 µM [falling, partial curve, poor fit]
